# The supplement of paper PMC8728848
# The list shows a part of the results.
# B1: 4F2hc (Homo sapiens), P08195 (protein)
# chain: WWHTGALYRIGDLQAFQGHGAGNLAGLKGRLDYLSSLKVKGLVLGPIHKNQKDDVAQTDLLQIDPNFGSKEDFDSLLQSAKKKSIRVILDLTPNYRGENSWFSTQVDTVATKVKDALEFWLQAGVDGFQVRDIENLKDASSFLAEWQNITKGFSEDRLLIAGTNSSDLQQILSLLESNKDLLLTSSYLSDSGSTGEHTKSLVTQYLNATGNRWCSWSLSQARLLTSFLPAQLLRLYQLMLFTLPGTPVFSYGDEIGLDAAALPGQPMEAPVMLWDESSFPDIPGAVSANMTVKGQSEDPGSLLSLFRRLSDQRSKERSLLHGDFHAFSAGPGLFSYIRHWDQNERFLVVLNFGDVGLSAGLQASDLPASASLPAKADLLLSTQPGREEGSPLELERLKLEPHEGLLLRFPYAA
# Legend:
# Assay in all cases: glycan array binding signal (z-score within array); higher = stronger binding
# Conditions in all cases: glycan notation: IUPAC condensed, linker removed
# [1] = target: Fuc(a1-2)[Gal(a1-3)]Gal(b1-4)GlcNAc(b1-2)Man(a1-3)[Fuc(a1-2)[Gal(a1-3)]Gal(b1-4)GlcNAc(b1-2)Man(a1-6)]Man(b1-4)GlcNAc(b1-4)GlcNAc
# Summary of the method: (§1)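 The Consortium for Functional Glycomics database supplied 3228 glycan arrays, of which those lacking an available protein sequence were dropped. The binding signal, a within-array Z-score, was averaged across arrays of the same protein sequence and across linkers. Negative scores can be read as non-binding.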
# [2] = target: Fuc(a1-2)[Gal(a1-3)]Gal(b1-4)[Fuc(a1-3)]GlcNAc
# Summary of the method: as §1
# [3] = target: Fuc(a1-2)[Gal(a1-4)]Gal(b1-4)GlcNAc
# Summary of the method: as §1
# [4] = target: Fuc(a1-2)[GalNAc(a1-3)]Gal
# Summary of the method: as §1
# [5] = target: Fuc(a1-2)[GalNAc(a1-3)]Gal(b1-3)GlcNAc
# Summary of the method: as §1
# [6] = target: Fuc(a1-2)[GalNAc(a1-3)]Gal(b1-3)GlcNAc(b1-2)Man(a1-3)[Fuc(a1-2)[GalNAc(a1-3)]Gal(b1-3)GlcNAc(b1-2)Man(a1-6)]Man(b1-4)GlcNAc(b1-4)GlcNAc
# Summary of the method: as §1
# [7] = target: Fuc(a1-2)[GalNAc(a1-3)]Gal(b1-4)Glc
# Summary of the method: as §1
# [8] = target: Fuc(a1-2)[GalNAc(a1-3)]Gal(b1-4)GlcNAc
# Summary of the method: as §1
# [9] = target: Fuc(a1-2)[GalNAc(a1-3)]Gal(b1-4)GlcNAc(b1-2)Man(a1-3)[GalNAc(a1-3)[Fuc(a1-2)]Gal(b1-4)GlcNAc(b1-2)Man(a1-6)]Man(b1-4)GlcNAc(b1-4)GlcNAc
# Summary of the method: as §1
# [10] = target: Fuc(a1-2)[GalNAc(a1-3)]Gal(b1-4)GlcNAc(b1-3)Gal(b1-4)GlcNAc
# Summary of the method: as §1
# [11] = target: Fuc(a1-2)[GalNAc(a1-3)]Gal(b1-4)GlcNAc(b1-3)Gal(b1-4)GlcNAc(b1-3)Gal(b1-4)GlcNAc
# Summary of the method: as §1
# [12] = target: Fuc(a1-2)[GalNAc(a1-3)]Gal(b1-4)[Fuc(a1-3)]GlcNAc
# Summary of the method: as §1
# [13] = target: Fuc(a1-2)[GalNAc(a1-4)]Gal(b1-4)GlcNAc
# Summary of the method: as §1
# [14] = target: Fuc(a1-2)[GalNAc(b1-3)]Gal
# Summary of the method: as §1
# Fuc(a1-3)GlcNAc = target: Fuc(a1-3)GlcNAc
# Summary of the method: as §1
# [15] = target: Fuc(a1-3)[Gal(b1-4)]Glc6S
# Summary of the method: as §1
# [16] = target: Fuc(a1-3)[Gal(b1-4)]GlcNAc
# Summary of the method: as §1
# [17] = target: Fuc(a1-3)[Gal(b1-4)]GlcNAc(b1-2)Man(a1-3)[Fuc(a1-3)[Gal(b1-4)]GlcNAc(b1-2)Man(a1-6)]Man(b1-4)GlcNAc(b1-4)GlcNAc
# Summary of the method: as §1
# [18] = target: Fuc(a1-3)[Gal(b1-4)]GlcNAc(b1-2)Man(a1-6)[Gal(b1-4)GlcNAc(b1-2)Man(a1-3)]Man(b1-4)GlcNAc(b1-4)GlcNAc
# Summary of the method: as §1
# [19] = target: Fuc(a1-3)[Gal(b1-4)]GlcNAc(b1-3)Gal(b1-3)[Fuc(a1-4)]GlcNAc
# Summary of the method: as §1
# [20] = target: Fuc(a1-3)[Gal(b1-4)]GlcNAc(b1-4)Gal(b1-4)[Fuc(a1-3)]GlcNAc
# Summary of the method: as §1
# [21] = target: Fuc(a1-3)[Gal(b1-4)]GlcNAc(b1-4)Gal(b1-4)[Fuc(a1-3)]GlcNAc(b1-4)Gal(b1-4)[Fuc(a1-3)]GlcNAc
# Summary of the method: as §1
# [22] = target: Fuc(a1-3)[Gal(b1-4)]GlcNAc6S
# Summary of the method: as §1
# [23] = target: Fuc(a1-3)[Gal3S(b1-4)]Glc6S
# Summary of the method: as §1
# [24] = target: Fuc(a1-3)[Gal3S(b1-4)]GlcNAc
# Summary of the method: as §1
# [25] = target: Fuc(a1-3)[Gal3S(b1-4)]GlcNAc6S
# Summary of the method: as §1
# [26] = target: Fuc(a1-3)[GalNAc(b1-4)]GlcNAc
# Summary of the method: as §1
# [27] = target: Fuc(a1-3)[Neu5Ac(a2-3)]Gal(b1-4)GlcNAc(b1-3)GalNAc
# Summary of the method: as §1
# Fuc(a1-4)GlcNAc = target: Fuc(a1-4)GlcNAc
# Summary of the method: as §1
# Fuc(b1-3)GlcNAc = target: Fuc(b1-3)GlcNAc
# Summary of the method: as §1
binder,measurement,setting,value
B1,glycan array binding signal (z-score),[1],-0.107
same,glycan array binding signal (z-score),[2],1.16
same,glycan array binding signal (z-score),[3],2.24
same,glycan array binding signal (z-score),[4],0.845
same,glycan array binding signal (z-score),[5],-0.297
same,glycan array binding signal (z-score),[6],-0.757
same,glycan array binding signal (z-score),[7],6.38
same,glycan array binding signal (z-score),[8],-0.63
same,glycan array binding signal (z-score),[9],-0.199
same,glycan array binding signal (z-score),[10],1.59
same,glycan array binding signal (z-score),[11],1.26
same,glycan array binding signal (z-score),[12],0.679
same,glycan array binding signal (z-score),[13],-0.82
same,glycan array binding signal (z-score),[14],-0.198
same,glycan array binding signal (z-score),Fuc(a1-3)GlcNAc,-0.586
same,glycan array binding signal (z-score),[15],1.75
same,glycan array binding signal (z-score),[16],0.304
same,glycan array binding signal (z-score),[17],-0.966
same,glycan array binding signal (z-score),[18],-0.963
same,glycan array binding signal (z-score),[19],1.58
same,glycan array binding signal (z-score),[20],0.937
same,glycan array binding signal (z-score),[21],-1.11
same,glycan array binding signal (z-score),[22],2.68
same,glycan array binding signal (z-score),[23],-1.06
same,glycan array binding signal (z-score),[24],0.651
same,glycan array binding signal (z-score),[25],1.29
same,glycan array binding signal (z-score),[26],-0.392
same,glycan array binding signal (z-score),[27],-0.098
same,glycan array binding signal (z-score),Fuc(a1-4)GlcNAc,-0.807
same,glycan array binding signal (z-score),Fuc(b1-3)GlcNAc,-0.415

# Two consecutive records already listed:
binder,measurement,setting,value
B1,glycan array binding signal (z-score),[17],-0.966
same,glycan array binding signal (z-score),[18],-0.963
